This assay has as its target USP7 (Homo sapiens, UniProt Q93009). The experiment in a line: biochemical. The arrangement: Ub-AMC hydrolysis by recombinant USP7 (20 nM), 30 min pre-incubation, fluorescence read-out. The note with it: read-out: % Inhibition at 50 μM.

Sequences of proteins named here, by UniProt entry; tags and fusion partners are left off.
UniProt Q93009, whole entry: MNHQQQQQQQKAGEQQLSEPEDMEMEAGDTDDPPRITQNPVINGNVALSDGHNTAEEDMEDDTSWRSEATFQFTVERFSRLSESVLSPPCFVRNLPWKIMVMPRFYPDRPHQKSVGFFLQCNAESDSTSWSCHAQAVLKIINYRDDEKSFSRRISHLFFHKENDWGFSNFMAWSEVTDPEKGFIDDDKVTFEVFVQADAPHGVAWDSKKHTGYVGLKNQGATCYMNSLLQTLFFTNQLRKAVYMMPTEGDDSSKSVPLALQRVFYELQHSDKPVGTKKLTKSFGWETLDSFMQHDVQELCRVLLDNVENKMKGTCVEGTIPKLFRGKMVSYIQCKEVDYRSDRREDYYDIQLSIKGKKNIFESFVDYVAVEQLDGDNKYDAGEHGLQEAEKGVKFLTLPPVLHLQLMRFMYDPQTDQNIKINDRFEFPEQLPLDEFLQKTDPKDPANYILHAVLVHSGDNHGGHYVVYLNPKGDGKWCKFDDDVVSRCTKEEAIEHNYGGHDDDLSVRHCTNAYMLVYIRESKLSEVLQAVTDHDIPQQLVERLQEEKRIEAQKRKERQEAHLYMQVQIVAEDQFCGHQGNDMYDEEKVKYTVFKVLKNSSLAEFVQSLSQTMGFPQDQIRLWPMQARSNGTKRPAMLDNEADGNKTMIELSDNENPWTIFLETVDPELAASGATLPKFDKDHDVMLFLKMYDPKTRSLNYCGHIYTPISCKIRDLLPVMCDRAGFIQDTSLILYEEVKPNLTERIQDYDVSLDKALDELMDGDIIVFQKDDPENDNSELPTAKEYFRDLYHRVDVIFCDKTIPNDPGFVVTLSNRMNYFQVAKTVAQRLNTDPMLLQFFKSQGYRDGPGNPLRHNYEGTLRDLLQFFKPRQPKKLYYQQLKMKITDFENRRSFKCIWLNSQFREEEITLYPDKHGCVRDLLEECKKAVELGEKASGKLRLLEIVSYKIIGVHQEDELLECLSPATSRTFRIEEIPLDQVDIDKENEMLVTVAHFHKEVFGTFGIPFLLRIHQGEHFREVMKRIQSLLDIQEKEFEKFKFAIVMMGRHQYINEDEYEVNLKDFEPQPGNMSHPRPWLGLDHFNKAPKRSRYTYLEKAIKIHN

Data on two molecules can be found in publication PMC5363571 (Oncotarget, 2016).

Where a name gives a salt, the structure may show the parent alone.

In the case of `Clc1ccc2c(c1)CCc1cccnc1C2=C1CCNCC1` [Desloratadine], the inhibition (commonly how much of the control response was suppressed) at 50 µM was less than 5%.

`Cc1ccccc1C(OCCN(C)C)c1ccccc1` (centres unmarked) [Orphenadrine citrate]: the inhibition at 50 µM is less than 5%.
